Earlier results as cited in US20160243040A1, “Pharmaceutical Composition with Antiinflammatory Agents and Production Process” (LABORATORIO RAAM DE SAHUAYO, S.A. DE C.V., priority 2013, published 2016).
At least one compound was matched to its structure with a doubt left.

Legend:
[1] = applies only to oral or intravenous use
[2] = relative potency, cortisol = 1
[3] = relative potency, cortisol = 1; remark: listed apart in the source

SMILES	Dose equivalents [1] [mg]	Anti-inflammatory potency [2]	Potency to retain Na+ [3]
C[C@H]1C[C@H]2[C@@H]3CCC4=CC(=O)C=C[C@]4(C)[C@@]3(F)[C@@H](O)C[C@]2(C)[C@@]1(O)C(=O)CO [Betamethasone]	0.75	25	0
C[C@@H]1C[C@H]2[C@@H]3CCC4=CC(=O)C=C[C@]4(C)[C@@]3(F)[C@@H](O)C[C@]2(C)[C@@]1(O)C(=O)CO [Dexamethasone]	0.75	25	0
